Measured values from PubChem BioAssay AID687022 (Broad Institute, 2013).
In all, about 1,000 compounds went through this assay and about 360 (36%) were called active. The shares of active, inactive and inconclusive entries below differ from those in the screen.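 How the source made its calls: active means Fitted curve of melting temperature shift crosses the 1.0 threshold at or below the sample's highest valid tested concentration; inconclusive means Flat fit with activity 30 to 70, or invalid fit; inactive means Opposite direction, flat within 30, or no crossing.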

Amino acid sequences for entries named in this document (tags omitted). A change or cut given only in a name is not applied to a line headed by its entry.
UniProt Q9HCT0: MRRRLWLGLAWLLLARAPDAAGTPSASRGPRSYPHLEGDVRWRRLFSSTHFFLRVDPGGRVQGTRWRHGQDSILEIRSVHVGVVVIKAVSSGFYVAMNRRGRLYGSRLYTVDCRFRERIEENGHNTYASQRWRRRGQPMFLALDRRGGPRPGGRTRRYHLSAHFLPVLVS

target: Fibroblast growth factor 22 (Homo sapiens) (UniProt Q9HCT0); assay: FGF22 ligand-induced thermal stabilization – biophysical, thermal shift, cherry-pick, FGF22 synaptogenesis inhibitor project, dose response (AID 687022); settings: recombinant FGF22 thermal shift, SYPRO orange melting; at 38 µM (top of the series) unless noted; further: reference of the scale not given here

Row | SMILES | Tm shift activity
1 | Nc1nccc(-c2ccc(-n3cccc3)cc2)n1 | inactive: -0.117%
2 | O=C(O)C1CCN(S(=O)(=O)Cc2ccccc2)CC1 | inactive: 0.131%
3 | Cc1nc2ccc(C(=O)N/N=C/c3ccccc3O)cc2[nH]1 | inconclusive: 25.2%
4 | COc1ccc(S(=O)(=O)N(C)C[C@@H]2Oc3c(NS(=O)(=O)c4ccc(C)cc4)cccc3C(=O)N([C@H](C)CO)C[C@@H]2C)cc1 | inconclusive: 25.3% [at 42 µM]
5 | COC(=O)[C@]1(Cc2ccccc2)N[C@H](CN(C)S(=O)(=O)c2ccc(C)cc2)[C@@H]2C(=O)N(Cc3ccccc3)C(=O)[C@@H]21 | inconclusive: 29.9%
6 | CC(C)NC(=O)Nc1ccc2c(c1)C(=O)N([C@H](C)CO)C[C@H](C)[C@H](CN(C)C(=O)Nc1cccc3ccccc13)O2 | inactive: -0.245% [at 42 µM]
7 | N#C[C@H]1[C@@H](c2ccc(C3=CCCCC3)cc2)[C@@H](CO)N1S(=O)(=O)c1ccccc1 | inconclusive: 22.5%
